# Measurements from PubChem BioAssay AID1917 (Vanderbilt High Throughput Screening Facility, 2009).
# Sequences of proteins named here, by UniProt entry; tags and fusion partners are left off. A change or cut given only in a name is not applied to a line headed by its entry.
# UniProt P48048: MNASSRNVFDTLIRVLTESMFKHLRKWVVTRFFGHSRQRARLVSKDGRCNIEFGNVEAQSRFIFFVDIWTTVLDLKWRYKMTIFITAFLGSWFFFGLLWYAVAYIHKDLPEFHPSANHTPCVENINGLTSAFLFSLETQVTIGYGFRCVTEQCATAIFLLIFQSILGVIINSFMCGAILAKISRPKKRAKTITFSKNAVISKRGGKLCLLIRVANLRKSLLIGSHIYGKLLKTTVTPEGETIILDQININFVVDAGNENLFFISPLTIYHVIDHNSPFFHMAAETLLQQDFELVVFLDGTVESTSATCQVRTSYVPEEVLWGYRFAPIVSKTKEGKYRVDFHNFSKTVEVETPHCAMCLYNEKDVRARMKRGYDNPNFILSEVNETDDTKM
# The campaign covered roughly 3,000 compounds. About 1,600 (53%) were called active. So high a share suggests a set chosen from earlier hits. Inconclusive means that the source gave no clear call. Such entries were picked first, then a sample of the others.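 The calls were made as follows: active = Flux at 10 µM at least 3 SD below or above vehicle control mean in one or both replicates; inconclusive = no clear call, values can overlap the other calls; inactive = the rest.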
# Target: ATP-sensitive inward rectifier potassium channel 1 (Homo sapiens) (UniProt P48048)
# Assay: retested modulators of human Kir1.1 channel – cell-based, thallium flux, duplicate, resupplied hits, confirmation (AID 1917)
# Conditions: ROMK thallium flux, fluorescence ratio; at 10 µM; stronger effect = lower value
row,SMILES,normalized thallium flux (F/F0 slope)
1,Cc1cc(NC(=O)CSc2nc3ccccc3c(=O)n2C2CCCC2)no1,inconclusive: 0.094
2,O=C(NCc1ccccc1)c1ccc(Br)cc1,inconclusive: 0.0703
3,COc1cc(CNCCc2ccccc2)ccc1OCc1ccc(Cl)nc1,active: 0.057
4,Cc1ccsc1/C=N/NC(=O)c1cc(-c2ccncc2)nc2ccccc12,inconclusive: 0.0916
5,COc1ccc(-c2nc(CN3CCC(C(=O)N4CCc5ccccc54)CC3)c(C)o2)cc1OC,inconclusive: 0.0694
6,Cc1ccc(-c2nn(-c3ccccc3)cc2C2SCC(=O)N2Cc2ccccc2)o1 (centres undefined),inactive: 0.0778
7,O=C(/C=C/c1ccc(F)cc1)N1CCCc2ccccc21,inconclusive: 0.0689
8,CCN(CC)C(=O)CCSc1nnc(-c2ccco2)o1,inactive: 0.0726
9,Cc1cc2cc(CN(Cc3nnnn3C3CCCCC3)CC3CCCO3)c(=O)[nH]c2cc1C (centres undefined),inconclusive: 0.0653
10,COc1ccc(N2CCN(C(=O)c3ccc(N(C)S(=O)(=O)c4ccc(OC)cc4)cc3)CC2)cc1,inconclusive: 0.0691
11,CCCC(=O)Nc1nc(C)c(-c2csc(Nc3ccccc3C)n2)s1,inconclusive: 0.0693
12,CCCNC(=S)Nc1cccc(C(F)(F)F)c1,inconclusive: 0.0691
13,Cc1cc(N2CCN(C(c3ccccc3)c3ccccc3)CC2)n2ncnc2n1,inconclusive: 0.0696
14,Cc1ccc(NC(=O)c2ccc(Nc3ccccc3F)nc2)cc1,inactive: 0.0814
15,COc1ccccc1-c1cc(-c2cc(Cl)ccc2O)n[nH]1,inconclusive: 0.0691
16,Cc1cccc(NS(=O)(=O)c2ccc3[nH]c(=O)cc(C(=O)OC(C)C(=O)Nc4ccc([N+](=O)[O-])cc4)c3c2)c1 (centres undefined),inconclusive: 0.0699
17,Oc1c(CN2CCCCC2)cc(COCc2ccccc2)c2cccnc12,inactive: 0.0705
18,O=C(CCl)Nc1cccc(Oc2ccccc2)c1,inconclusive: 0.0662
19,COC(=O)C1=C(C(=O)OC)[C@@H]2N(Cc3ccccc3)c3ccccc3[C@@]23C[C@@H](C(=O)OC)N(C(=O)CC(C)C)C3=N1,inconclusive: 0.0682
20,CCCCC[C@H](O)/C=C/C1=C(CCCCCCC(=O)O)C(=O)CC1,inactive: 0.0805
21,COc1cccc(C(c2nnnn2C(C)(C)C)N2CCN(C3CCCCC3)CC2)c1OC (centres undefined),inconclusive: 0.0688
22,COc1ccc(S(=O)(=O)NCc2ccccc2Cl)cc1OC,inactive: 0.0764
23,COc1ccc(CN(C)Cc2nc(Cc3cccc(F)c3)no2)c2cccnc12,inconclusive: 0.0728
24,O=C(CSCC(=O)N1CCCCC1)Nc1nc(-c2ccc(Cl)s2)cs1,inconclusive: 0.0702

# Reprinted: nos. 22–23
row,SMILES,normalized thallium flux (F/F0 slope)
22,COc1ccc(S(=O)(=O)NCc2ccccc2Cl)cc1OC,inactive: 0.0764
23,COc1ccc(CN(C)Cc2nc(Cc3cccc(F)c3)no2)c2cccnc12,inconclusive: 0.0728
